Laboratory results taken from article doi:10.1101/2021.09.16.460581.
No constants are given. Whether binding was seen depends on the method and setting. In cells and extracts the contact can be indirect. A yes stands for co-enrichment or nearness to the bait. Other partners may have been found. Where a sequence is shown, tags or fusion partners need not be part of it.

T1: Mrc1-YFP (S. cerevisiae) (UniProt P25588)
T1 sequence: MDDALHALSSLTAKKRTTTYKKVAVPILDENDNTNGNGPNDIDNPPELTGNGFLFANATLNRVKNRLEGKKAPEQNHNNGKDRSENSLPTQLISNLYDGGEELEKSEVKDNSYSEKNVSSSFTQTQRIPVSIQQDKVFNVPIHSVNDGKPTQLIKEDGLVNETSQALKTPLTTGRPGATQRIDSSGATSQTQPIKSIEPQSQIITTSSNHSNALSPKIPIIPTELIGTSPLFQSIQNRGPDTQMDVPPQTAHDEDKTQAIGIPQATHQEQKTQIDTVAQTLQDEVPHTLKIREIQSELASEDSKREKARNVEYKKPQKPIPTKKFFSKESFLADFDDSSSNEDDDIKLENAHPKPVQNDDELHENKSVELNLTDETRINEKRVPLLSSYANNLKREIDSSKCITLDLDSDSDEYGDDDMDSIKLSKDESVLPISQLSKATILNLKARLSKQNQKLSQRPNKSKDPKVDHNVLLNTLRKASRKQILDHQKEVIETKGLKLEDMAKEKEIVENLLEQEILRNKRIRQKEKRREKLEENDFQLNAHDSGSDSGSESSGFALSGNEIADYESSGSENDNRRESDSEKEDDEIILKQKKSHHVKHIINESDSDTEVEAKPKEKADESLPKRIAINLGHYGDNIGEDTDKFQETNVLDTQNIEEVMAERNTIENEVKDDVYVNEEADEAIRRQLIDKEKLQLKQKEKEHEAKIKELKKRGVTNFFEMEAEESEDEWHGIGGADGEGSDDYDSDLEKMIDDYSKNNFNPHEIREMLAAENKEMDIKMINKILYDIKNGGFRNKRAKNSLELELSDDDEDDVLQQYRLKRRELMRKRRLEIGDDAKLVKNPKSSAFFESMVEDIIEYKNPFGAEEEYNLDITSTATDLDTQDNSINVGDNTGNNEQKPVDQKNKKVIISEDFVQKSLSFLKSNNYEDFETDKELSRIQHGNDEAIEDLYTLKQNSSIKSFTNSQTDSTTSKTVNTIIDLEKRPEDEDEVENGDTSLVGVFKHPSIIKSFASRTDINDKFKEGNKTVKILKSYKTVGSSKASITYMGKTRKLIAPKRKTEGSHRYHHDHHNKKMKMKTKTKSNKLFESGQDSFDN

B1: Pri2 (protein, UniProt P20457 1-528)
chain: MFRQSKRRIASRKNFSSYDDIVKSELDVGNTNAANQIILSSSSSEEEKKLYARLYESKLSFYDLPPQGEITLEQFEIWAIDRLKILLEIESCLSRNKSIKEIETIIKPQFQKLLPFNTESLEDRKKDYYSHFILRLCFCRSKELREKFVRAETFLFKIRFNMLTSTDQTKFVQSLDLPLLQFISNEEKAELSHQLYQTVSASLQFQLNLNEEHQRKQYFQQEKFIKLPFENVIELVGNRLVFLKDGYAYLPQFQQLNLLSNEFASKLNQELIKTYQYLPRLNEDDRLLPILNHLSSGYTIADFNQQKANQFSENVDDEINAQSVWSEEISSNYPLCIKNLMEGLKKNHHLRYYGRQQLSLFLKGIGLSADEALKFWSEAFTRNGNMTMEKFNKEYRYSFRHNYGLEGNRINYKPWDCHTILSKPRPGRGDYHGCPFRDWSHERLSAELRSMKLTQAQIISVLDSCQKGEYTIACTKVFEMTHNSASADLEIGEQTHIAHPNLYFERSRQLQKKQQKLEKEKLFNNGNH
B2: Pol12 (protein, UniProt P38121 1-705)
chain: MSGSIDVITHFGPDADKPEIITALENLTKLHALSVEDLYIKWEQFSNQRRQTHTDLTSKNIDEFKQFLQLQMEKRANQISSSSKVNTSTKKPVIKKSLNSSPLFGLSIPKTPTLKKRKLHGPFSLSDSKQTYNVGSEAETNEKGNSSLKLEFTPGMAEDAVGDSAPLSHAKSSDAKTPGSSTFQTPTTNTPTTSRQNVPAGEILDSLNPENIEISSGNPNVGLLSTEEPSYNQVKVEPFYDAKKYKFRTMRQNLQEASDVLDDQIESFTKIIQNHYKLSPNDFADPTIQSQSEIYAVGRIVPDSPTYDKFLNPESLSLETSRMGGVGRRVRLDLSQVNELSFFLGQIVAFKGKNANGDYFTVNSILPLPYPNSPVSTSQELQEFQANLEGSSLKVIVTCGPYFANDNFSLELLQEFIDSINNEVKPHVLIMFGPFIDITHPLIASGKLPNFPQFKTQPKTLDELFLKLFTPILKTISPHIQTVLIPSTKDAISNHAAYPQASLIRKALQLPKRNFKCMANPSSFQINEIYFGCSNVDTFKDLKEVIKGGTTSSRYRLDRVSEHILQQRRYYPIFPGSIRTRIKPKDVSTKKETNDMESKEEKVYEHISGADLDVSYLGLTEFVGGFSPDIMIIPSELQHFARVVQNVVVINPGRFIRATGNRGSYAQITVQCPDLEDGKLTLVEGEEPVYLHNVWKRARVDLIAS
B3: Pol1 (protein, UniProt P13382 1-1468)
chain: MSSKSEKLEKLRKLQAARNGTSIDDYEGDESDGDRIYDEIDEKEYRARKRQELLHDDFVVDDDGVGYVDRGVEEDWREVDNSSSDEDTGNLASKDSKRKKNIKREKDHQITDMLRTQHSKSTLLAHAKKSQKKSIPIDNFDDILGEFESGEVEKPNILLPSKLRENLNSSPTSEFKSSIKRVNGNDESSHDAGISKKVKIDPDSSTDKYLEIESSPLKLQSRKLRYANDVQDLLDDVENSPVVATKRQNVLQDTLLANPPSAQSLADEEDDEDSDEDIILKRRTMRSVTTTRRVNIDSRSNPSTSPFVTAPGTPIGIKGLTPSKSLQSNTDVATLAVNVKKEDVVDPETDTFQMFWLDYCEVNNTLILFGKVKLKDDNCVSAMVQINGLCRELFFLPREGKTPTDIHEEIIPLLMDKYGLDNIRAKPQKMKYSFELPDIPSESDYLKVLLPYQTPKSSRDTIPSDLSSDTFYHVFGGNSNIFESFVIQNRIMGPCWLDIKGADFNSIRNASHCAVEVSVDKPQNITPTTTKTMPNLRCLSLSIQTLMNPKENKQEIVSITLSAYRNISLDSPIPENIKPDDLCTLVRPPQSTSFPLGLAALAKQKLPGRVRLFNNEKAMLSCFCAMLKVEDPDVIIGHRLQNVYLDVLAHRMHDLNIPTFSSIGRRLRRTWPEKFGRGNSNMNHFFISDICSGRLICDIANEMGQSLTPKCQSWDLSEMYQVTCEKEHKPLDIDYQNPQYQNDVNSMTMALQENITNCMISAEVSYRIQLLTLTKQLTNLAGNAWAQTLGGTRAGRNEYILLHEFSRNGFIVPDKEGNRSRAQKQRQNEENADAPVNSKKAKYQGGLVFEPEKGLHKNYVLVMDFNSLYPSIIQEFNICFTTVDRNKEDIDELPSVPPSEVDQGVLPRLLANLVDRRREVKKVMKTETDPHKRVQCDIRQQALKLTANSMYGCLGYVNSRFYAKPLAMLVTNKGREILMNTRQLAESMNLLVVYGDTDSVMIDTGCDNYADAIKIGLGFKRLVNERYRLLEIDIDNVFKKLLLHAKKKYAALTVNLDKNGNGTTVLEVKGLDMKRREFCPLSRDVSIHVLNTILSDKDPEEALQEVYDYLEDIRIKVETNNIRIDKYKINMKLSKDPKAYPGGKNMPAVQVALRMRKAGRVVKAGSVITFVITKQDEIDNAADTPALSVAERAHALNEVMIKSNNLIPDPQYYLEKQIFAPVERLLERIDSFNVVRLSEALGLDSKKYFRREGGNNNGEDINNLQPLETTITDVERFKDTVTLELSCPSCDKRFPFGGIVSSNYYRVSYNGLQCKHCEQLFTPLQLTSQIEHSIRAHISLYYAGWLQCDDSTCGIVTRQVSVFGKRCLNDGCTGVMRYKYSDKQLYNQLLYFDSLFDCEKNKKQELKPIYLPDDLDYPKEQLTESSIKALTEQNRELMETGRSVVQKYLNDCGRRYVDMTSIFDFMLN
B4: Dpb2 (protein, UniProt P24482 1-689)
chain: MFGSGNVLPVKIQPPLLRPLAYRVLSRKYGLSIKSDGLSALAEFVGTNIGANWRQGPATIKFLEQFAAVWKQQERGLFIDQSGVKEVIQEMKEREKVEWSHEHPIQHEENILGRTDDDENNSDDEMPIAADSSLQNVSLSSPMRQPTERDEYKQPFKPESSKALDWRDYFKVINASQQQRFSYNPHKMQFIFVPNKKQNGLGGIAGFLPDIEDKVQMFLTRYYLTNDRVMRNENFQNSDMFNPLSSMVSLQNELSNTNRQQQSSSMSITPIKNLLGRDAQNFLLLGLLNKNFKGNWSLEDPSGSVEIDISQTIPTQGHYYVPGCMVLVEGIYYSVGNKFHVTSMTLPPGERREITLETIGNLDLLGIHGISNNNFIARLDKDLKIRLHLLEKELTDHKFVILGANLFLDDLKIMTALSKILQKLNDDPPTLLIWQGSFTSVPVFASMSSRNISSSTQFKNNFDALATLLSRFDNLTENTTMIFIPGPNDLWGSMVSLGASGTLPQDPIPSAFTKKINKVCKNVVWSSNPTRIAYLSQEIVIFRDDLSGRFKRHRLEFPFNESEDVYTENDNMMSKDTDIVPIDELVKEPDQLPQKVQETRKLVKTILDQGHLSPFLDSLRPISWDLDHTLTLCPIPSTMVLCDTTSAQFDLTYNGCKVINPGSFIHNRRARYMEYVPSSKKTIQEEIYI
B5: Rpn8 (protein, UniProt Q08723 1-338)
chain: MSLQHEKVTIAPLVLLSALDHYERTQTKENKRCVGVILGDANSSTIRVTNSFALPFEEDEKNSDVWFLDHNYIENMNEMCKKINAKEKLIGWYHSGPKLRASDLKINELFKKYTQNNPLLLIVDVKQQGVGLPTDAYVAIEQVKDDGTSTEKTFLHLPCTIEAEEAEEIGVEHLLRDVRDQAAGGLSIRLTNQLKSLKGLQSKLKDVVEYLDKVINKELPINHTILGKLQDVFNLLPNLGTPDDDEIDVENHDRINISNNLQKALTVKTNDELMVIYISNLVRSIIAFDDLIENKIQNKKIQEQRVKDKQSKVSDDSESESGDKEATAPLIQRKNKKN
B6: Cdc53 (protein, UniProt Q12018 1-815)
chain: MSETLPRSDDLEATWNFIEPGINQILGNEKNQASTSKRVYKILSPTMYMEVYTAIYNYCVNKSRSSGHFSTDSRTGQSTILVGSEIYEKLKNYLKNYILNFKQSNSETFLQFYVKRWKRFTIGAIFLNHAFDYMNRYWVQKERSDGKRHIFDVNTLCLMTWKEVMFDPSKDVLINELLDQVTLGREGQIIQRSNISTAIKSLVALGIDPQDLKKLNLNVYIQVFEKPFLKKTQEYYTQYTNDYLEKHSVTEYIFEAHEIIKREEKAMTIYWDDHTKKPLSMALNKVLITDHIEKLENEFVVLLDARDIEKITSLYALIRRDFTLIPRMASVFENYVKKTGENEISSLLAMHKHNIMKNENANPKKLALMTAHSLSPKDYIKKLLEVHDIFSKIFNESFPDDIPLAKALDNACGAFININEFALPAGSPKSATSKTSEMLAKYSDILLKKATKPEVASDMSDEDIITIFKYLTDKDAFETHYRRLFAKRLIHGTSTSAEDEENIIQRLQAANSMEYTGKITKMFQDIRLSKILEDDFAVALKNEPDYSKAKYPDLQPFVLAENMWPFSYQEVEFKLPKELVPSHEKLKESYSQKHNGRILKWLWPLCRGELKADIGKPGRMPFNFTVTLFQMAILLLYNDADVLTLENIQEGTSLTIQHIAAAMVPFIKFKLIQQVPPGLDALVKPETQFKLSRPYKALKTNINFASGVKNDILQSLSGGGHDNHGNKLGNKRLTEDERIEKELNTERQIFLEACIVRIMKAKRNLPHTTLVNECIAQSHQRFNAKVSMVKRAIDSLIQKGYLQRGDDGESYAYLA

target: T1, Mrc1-YFP (S. cerevisiae); experiment: affinity purification with mass spectrometry

binding, binds:
B1
B2
B3
B4
B5
B6
